In PMC7862700 one finds binding signal data, which are given here for 40 sequences.

Only a part is listed here, and it is no random draw. At the low end of the ranking the order means little.

The target of the assay is SPI1 (UniProt P17947). Nature of the assay: DAPPL (digital affinity profiling via proximity ligation, sequencing). As to conditions: 10 mM Tris-HCl pH 7.5, 50 mM NaCl, 1 mM DTT, 4% glycerol, room temperature, 30 min; GST-TFs on glutathione beads, 16-mer random dsDNA library, 0.1% …; high values mean tight binding; double strand, one strand shown; scale: fold enrichment (6-mer frequency, TF over GST control).
With TGCAGT, the binding signal was determined as 0.771.
AGGAGT showed a binding signal of 0.34.
For GAGTAC the value was 0.521; for GCAAGG, 0.817.
For GCCAGT the value was 0.298.
Under GTACGT stands 0.88; under TGACAG, 0.982.
As to GGACGG, the binding signal was found to be 0.489.
Under GGAGAT stands 0.286.
Under AGCCAG stands 0.443.
Under CGGAGA stands 0.201.
ATAGGA showed a binding signal of 0.854.
TGTGAG: the binding signal was 0.354.
Sequence CCAGGT gave a binding signal of 0.702.
For ATCAGG the value was 0.902.
Regarding GTGGGA, the binding signal came out at 0.62.
For GTCCGA the value was 0.813; for GAAGGC, 0.868.
Consider GAGAAG, for which the binding signal stood at 0.754.
Consider ACCGGG, for which the binding signal came to 0.45.
For CCGAGA the value was 0.577; for GACCAC, 0.827; for TCGTAA, 0.911.
For CCGTCG the value was 0.855; for GGACCG, 0.752; for GGAAGG, 0.813.
Under GTAGGA stands 0.561.
GGGACG returned a binding signal of 0.466.
For ATCCAG the value was 0.817.
Under CGTGCC stands 0.875.
For the sequence GGTGTA, the binding signal came out at 0.847.
Under AAGGCG stands 0.663; under GGCTGT, 0.787.
For GCGAGG the value was 0.628.
Under GAGGTA stands 0.672.
Consider GAGTCG, for which the binding signal is 0.234.
Under ACCAGT stands 0.459.
For CACAGT the value was 0.69; for TGCGAG, 0.928.
Under TGAGAA stands 0.748.
